At least one structure is not confirmed: it was looked up by name or label, or the drawing left a doubt.
Assay: experimental drug loading in CDN nanoparticles, quantified by absorbance
Assay type: physicochemical
Conditions: theoretical loading of 10% (w/w)
Experimental: Panobinostat-loaded nanoparticles were formulated by doping a given concentration of the drug with CDN in 2.5 vol % DMSO-aqueous medium. Panobinostat was added at different theoretical loadings, and the amount of panobinostat incorporated into the network after thorough washing was quantified by absorbance.
An aqueous dispersion (2.0 mL) of blank CDN nanoparticles (10 mg/mL) was doped with DMSO (50 uL) solution of panobinostat (40 mg/mL; 10% theoretical loading). The aqueous dispersion was left to agitate for 18 h, and subjected to concentration via ultrafiltration through Amicon Ultra-15 centrifugal filters (3 kDa MWCO, […]) for 4, 20 mins spins at 5000 RCF. Aliquots were frozen and lyophilized for later studies.
Drug loading was quantified by absorbance ([…] for quisinostat, panobinostat and dacinostat; 285 nm for givinostat; 365 nm for camptothecin; 550 nm for Nile Red) on a Tecan plate reader. Lyophilized nanoparticles were dissolved at 5 mg/ml in DMSO. Samples were plated in triplicate ([…], nanoparticles and 10 μL DMSO per well) in a clear, flat bottom 96-well assay plate. […] Experimental drug loading was calculated as mass of drug/mass of nanoparticles (w/w %). […] Absorbance was measured at 285 nm. Experimental drug loading was calculated as mass of drug/mass of nanoparticles (w/w %).

SMILES: Cc1[nH]c2ccccc2c1CCNCc1ccc(/C=C/C(=O)NO)cc1 [panobinostat]
- drug loading in CDNs 1-3: loaded particularly well
